Measurements published in article PMC5748837.
No constants are given. Whether binding was seen depends on the method and setting. Some binding calls cover weakened binding; strength is not graded here.

Chains of the proteins cited; added tags and fusions are not shown. Lines headed by an entry give the natural chain unless they say otherwise; changes in a name come on top. A line that says so, or that is headed by a name, gives the form on record, which may keep a tag or linker. Residues count along the entry.
UniProt Q68E01: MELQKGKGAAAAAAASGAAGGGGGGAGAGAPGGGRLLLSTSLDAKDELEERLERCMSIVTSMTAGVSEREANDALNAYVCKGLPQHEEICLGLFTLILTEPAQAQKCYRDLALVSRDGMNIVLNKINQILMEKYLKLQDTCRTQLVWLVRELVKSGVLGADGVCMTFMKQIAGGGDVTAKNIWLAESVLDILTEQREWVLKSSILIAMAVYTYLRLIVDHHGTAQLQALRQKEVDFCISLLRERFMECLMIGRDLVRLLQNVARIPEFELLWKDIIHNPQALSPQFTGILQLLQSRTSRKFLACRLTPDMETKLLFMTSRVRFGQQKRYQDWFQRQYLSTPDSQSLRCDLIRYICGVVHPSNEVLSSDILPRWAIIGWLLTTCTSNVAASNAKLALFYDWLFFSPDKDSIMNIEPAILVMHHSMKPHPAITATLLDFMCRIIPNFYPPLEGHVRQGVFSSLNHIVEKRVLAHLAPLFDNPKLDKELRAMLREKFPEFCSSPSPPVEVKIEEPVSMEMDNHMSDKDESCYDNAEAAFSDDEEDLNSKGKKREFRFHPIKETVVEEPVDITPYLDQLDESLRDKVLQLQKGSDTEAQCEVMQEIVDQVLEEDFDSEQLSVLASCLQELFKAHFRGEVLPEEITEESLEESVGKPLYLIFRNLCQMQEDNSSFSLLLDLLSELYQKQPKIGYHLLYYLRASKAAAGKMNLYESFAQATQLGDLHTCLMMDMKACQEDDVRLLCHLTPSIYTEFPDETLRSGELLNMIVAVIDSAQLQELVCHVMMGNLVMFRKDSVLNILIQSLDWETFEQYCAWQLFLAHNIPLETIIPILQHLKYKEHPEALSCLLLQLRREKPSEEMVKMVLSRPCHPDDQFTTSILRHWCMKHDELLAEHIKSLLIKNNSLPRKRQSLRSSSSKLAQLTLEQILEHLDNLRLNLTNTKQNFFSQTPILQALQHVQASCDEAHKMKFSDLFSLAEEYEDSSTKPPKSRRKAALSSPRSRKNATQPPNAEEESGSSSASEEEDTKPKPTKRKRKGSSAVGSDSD
GST-tagged C-terminal region of INTS3 (GST-INTS3^C, 514-1042 amino acids): residues 514-1042 of Q68E01
UniProt Q96AH0: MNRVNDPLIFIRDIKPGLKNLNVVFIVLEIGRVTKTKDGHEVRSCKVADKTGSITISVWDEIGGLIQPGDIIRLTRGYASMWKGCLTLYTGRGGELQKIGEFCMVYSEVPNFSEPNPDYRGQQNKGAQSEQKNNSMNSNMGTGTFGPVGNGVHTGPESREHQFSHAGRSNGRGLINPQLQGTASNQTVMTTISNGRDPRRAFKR

How the values were obtained:
[1] = target: GST-tagged C-terminal region of INTS3 (GST-INTS3^C, 514-1042 amino acids) (human) (UniProt Q68E01); experiment: pull-down; GST-INTS3^FL, -INTS3^N or -INTS3^C incubated with hNABP1/2 or C9ORF80 at 4 C for 1 h, then glutathione-agarose beads 1 h; eluted with 10 mM glutathione; Western blot; both purified
[2] = target: GST-tagged full-length integrator complex subunit 3 (GST-INTS3^FL) (human) (UniProt Q68E01); experiment: co-purification by two-step affinity chromatography; GST-INTS3^FL, His-hNABP1 or His-hNABP2 and His-C9ORF80 co-expressed in E. coli Rosetta 2; glutathione beads followed by Ni-NTA beads; SDS-PAGE and Western blot
[3] = target: GST-tagged full-length integrator complex subunit 3 (GST-INTS3^FL) (human) (UniProt Q68E01); experiment: native gel or EMSA; purified INTS3^FL-hNABP1-C9ORF80 complex with dT30, or INTS3^FL-hNABP2-C9ORF80 complex with rU30, resolved on native gel, transferred to nitrocellulose and probed with INTS3, hNABP1/2 and C9ORF80 antibodies; both purified

binding [1]: binds
binding [2]: binds
binding [3]: binds
Substance: Human nucleic acid-binding protein 1 (hNABP1) (from UniProt Q96AH0 1-204)
